According to US20070010428A1 (priority 2004, published 2007):

Legend:
[1] = general procedure: Fmoc solid-phase peptide synthesis; Rink-derivatized PL-DMA resin; DIPCDI/HOBt; PyBOP/HOBt/DIPEA for the cinnamic acid cap; settings: whole synthesis, scale ca 0.09 mmol (one quarter aliquot)
[2] = general procedure: Fmoc solid-phase peptide synthesis; Rink resin; DIPCDI/HOBt; PyBOP/HOBt/DIPEA for the cinnamic acid cap; settings: whole synthesis, scale 0.12 mmol
[3] = general procedure: Fmoc solid-phase peptide synthesis; Rink-linker-derivatized PL-DMA resin; Rink resin; DIPCDI/HOBt; PyBOP/HOBt/DIPEA for the cinnamic acid cap; settings: whole synthesis, analytical HPLC in ACN/H2O (0.1% TFA) and MeOH/0.01 M NH4OAc, scale of the general procedure ca 0.18 mmole

Row | Substance | crude mass [1] [mg] | crude mass [2] [mg] | final HPLC purity [3] [%]
1 | Ac-pTyr-Leu-Pro-G1-Thr-mts (YLPQTV; N-acetyl, mts; printed: Tyr-Leu-Pro-Gln-Thr-Val-) | 114 | – | –
2 | Ac-pTyr-Haic-Gln-Thr-NH2 | – | 66 | >98
